The experiment addresses T1, JAK3 (Homo sapiens, UniProt P52333).
T1 sequence (P52333 1-1124): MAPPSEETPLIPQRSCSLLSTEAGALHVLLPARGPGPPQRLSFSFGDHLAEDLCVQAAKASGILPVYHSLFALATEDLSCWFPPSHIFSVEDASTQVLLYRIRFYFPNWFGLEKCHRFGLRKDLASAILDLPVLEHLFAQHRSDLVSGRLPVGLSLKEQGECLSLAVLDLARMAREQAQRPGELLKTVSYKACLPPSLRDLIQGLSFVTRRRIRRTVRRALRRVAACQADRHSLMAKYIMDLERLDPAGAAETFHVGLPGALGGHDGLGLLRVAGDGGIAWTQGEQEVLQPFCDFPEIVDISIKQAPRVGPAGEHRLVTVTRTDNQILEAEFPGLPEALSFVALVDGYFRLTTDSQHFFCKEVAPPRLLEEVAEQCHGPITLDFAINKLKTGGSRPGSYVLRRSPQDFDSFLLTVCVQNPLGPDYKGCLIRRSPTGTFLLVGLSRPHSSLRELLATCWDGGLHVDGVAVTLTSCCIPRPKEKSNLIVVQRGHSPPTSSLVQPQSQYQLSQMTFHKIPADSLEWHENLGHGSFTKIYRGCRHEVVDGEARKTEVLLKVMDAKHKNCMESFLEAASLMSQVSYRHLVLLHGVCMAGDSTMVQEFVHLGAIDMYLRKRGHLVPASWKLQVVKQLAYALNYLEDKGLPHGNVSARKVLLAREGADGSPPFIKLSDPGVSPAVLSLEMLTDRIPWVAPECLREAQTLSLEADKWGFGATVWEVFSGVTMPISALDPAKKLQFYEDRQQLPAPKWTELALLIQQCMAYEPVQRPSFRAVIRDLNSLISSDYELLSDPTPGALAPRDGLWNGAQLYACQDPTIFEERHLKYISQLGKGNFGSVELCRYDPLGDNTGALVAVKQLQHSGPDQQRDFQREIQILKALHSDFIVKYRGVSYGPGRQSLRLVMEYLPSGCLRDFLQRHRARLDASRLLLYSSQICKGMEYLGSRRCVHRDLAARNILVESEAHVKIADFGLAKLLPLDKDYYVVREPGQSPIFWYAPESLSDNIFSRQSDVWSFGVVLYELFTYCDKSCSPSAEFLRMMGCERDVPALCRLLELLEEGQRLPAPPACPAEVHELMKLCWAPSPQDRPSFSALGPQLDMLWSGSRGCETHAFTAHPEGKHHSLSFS
The experiment in a line: DiscoveRx cellular platform, JAK3.

For the molecule `CCS(=O)(=O)N1CCN(c2ccc(Nc3ncc(C(N)=O)c(NC4CC4)n3)cc2)CC1` [DMVT-502, Cerdulatinib], the IC50 (in general, the concentration at which inhibition is half-maximal) stood at 5.14 µM.

Values taken from US20200390689A1, “CERDULATINIB-CONTAINING TOPICAL SKIN PHARMACEUTICAL COMPOSITIONS AND USES THEREOF” (Dermavant Sciences GmbH, priority 2018, published 2020).
